Here are results for 58 sequences from paper PMC7862700.

The list shows a part of the results, in another mix than the full data. At the low end of the ranking, values are background and their order means little.

Common to all, as to test: DAPPL (digital affinity profiling via proximity ligation, sequencing)
What all share (conditions): 10 mM Tris-HCl pH 7.5, 50 mM NaCl, 1 mM DTT, 4% glycerol, room temperature, 30 min; GST-TFs on glutathione beads, 16-mer random dsDNA library, 0.1% …; high values mean tight binding; double strand, one strand shown; scale: fold enrichment (6-mer frequency, TF over GST control)

Assay [1] has as its target T1, ELK1 (UniProt P19419).
T1 sequence: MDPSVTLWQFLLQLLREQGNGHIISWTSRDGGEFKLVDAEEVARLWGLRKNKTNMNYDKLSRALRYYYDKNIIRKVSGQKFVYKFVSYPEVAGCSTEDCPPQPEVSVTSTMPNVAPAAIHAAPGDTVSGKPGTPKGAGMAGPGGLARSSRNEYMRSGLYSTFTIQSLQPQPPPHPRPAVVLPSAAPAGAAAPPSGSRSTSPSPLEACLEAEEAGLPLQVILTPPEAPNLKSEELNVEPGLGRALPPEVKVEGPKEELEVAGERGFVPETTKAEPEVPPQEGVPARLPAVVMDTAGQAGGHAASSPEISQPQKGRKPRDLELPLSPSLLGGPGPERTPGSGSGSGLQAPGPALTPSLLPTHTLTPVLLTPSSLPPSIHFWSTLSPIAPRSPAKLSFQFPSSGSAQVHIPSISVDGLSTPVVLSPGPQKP

In assay [2] the target is T2, ELK3 (UniProt P41970).
T2 sequence: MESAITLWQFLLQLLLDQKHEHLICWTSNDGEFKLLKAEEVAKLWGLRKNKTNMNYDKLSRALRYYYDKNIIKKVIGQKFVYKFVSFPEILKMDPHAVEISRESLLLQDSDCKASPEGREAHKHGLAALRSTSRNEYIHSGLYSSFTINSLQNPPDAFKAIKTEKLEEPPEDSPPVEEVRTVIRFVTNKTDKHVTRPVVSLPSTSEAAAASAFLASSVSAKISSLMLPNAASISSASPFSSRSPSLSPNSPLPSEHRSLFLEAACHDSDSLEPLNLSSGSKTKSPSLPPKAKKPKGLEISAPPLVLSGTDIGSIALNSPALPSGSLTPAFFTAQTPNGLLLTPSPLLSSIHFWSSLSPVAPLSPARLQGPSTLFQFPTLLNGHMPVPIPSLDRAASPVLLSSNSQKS

Assay [3] concerns the target T3, ETV3 (UniProt P41162-2).
T3 sequence: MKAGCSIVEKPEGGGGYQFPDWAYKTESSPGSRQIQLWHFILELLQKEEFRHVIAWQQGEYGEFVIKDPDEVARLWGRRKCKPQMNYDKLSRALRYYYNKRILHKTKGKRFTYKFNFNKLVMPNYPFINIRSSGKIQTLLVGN

In assay [4] the target is T4, ETS2 (UniProt P15036).
T4 sequence: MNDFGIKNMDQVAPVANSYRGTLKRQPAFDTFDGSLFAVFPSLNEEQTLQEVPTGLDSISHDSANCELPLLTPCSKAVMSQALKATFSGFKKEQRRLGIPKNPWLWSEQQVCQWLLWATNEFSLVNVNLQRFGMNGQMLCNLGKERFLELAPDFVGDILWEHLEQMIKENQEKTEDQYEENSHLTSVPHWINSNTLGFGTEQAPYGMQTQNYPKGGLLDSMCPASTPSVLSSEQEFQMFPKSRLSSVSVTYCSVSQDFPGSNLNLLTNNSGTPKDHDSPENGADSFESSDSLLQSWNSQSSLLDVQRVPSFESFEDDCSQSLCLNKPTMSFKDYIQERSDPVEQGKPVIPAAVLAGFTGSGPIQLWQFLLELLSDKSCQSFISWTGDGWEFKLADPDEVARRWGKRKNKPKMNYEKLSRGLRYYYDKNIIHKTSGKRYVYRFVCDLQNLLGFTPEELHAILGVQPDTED

Regarding AAAAAG, the binding signal in assay [1] was 1.18; in assay [2] it was 1.2; in assay [3] it was 1.23. Regarding TACCCG, the figures for the binding signal in assay [1] and in assay [2] were 1.35 and 1.37, respectively.

On to GATACT, for which the binding signal in assay [1] came to 1.01; in assay [2], 1.09.

With TTCATC, the binding signal in assay [1] was determined as 1.28; in assay [2], 1.32.

Consider AGAATT, for which the binding signal stood at 1.15 in assay [1] and 1.28 in assay [2].

In the case of AGTATC, the binding signal came out at 1.13 in assay [1] and 1.17 in assay [2]. Taken in the same sequence, the figures for CCTCTC were 1.39 and 1.44. Taken in the same sequence, the figures for GTTACG were 0.993 and 1.01. Regarding TCTTAG, the binding signal in assay [4] came to 1.13. For ATATGC, the binding signal is 1.15 in assay [1] and 1.05 in assay [2]. Taken in the same sequence, the figures for TTCTCA were 1.31 and 1.27. Taken in the same sequence, the figures for AATTGC were 1.42 and 1.46. For CTAAGA, in that order: 1.22 and 1.18. TCTTGT: the binding signal worked out at 1.64 in assay [1] and 1.58 in assay [2].

Turning to TGCTCA, the binding signal in assay [1] was 1.28; in assay [2], 1.19.

Regarding TGCGCT, the values for the binding signal in assay [1] and in assay [2] were 1.3 and 1.25, respectively.

Take GTTGCA: the binding signal in assay [4] came to 1.17.

As for CGGCTC, the binding signal worked out at 1.29 in assay [1] and 1.31 in assay [2]. For ATACCT, in that order: 1.18 and 1.08. In the case of ACCACC, the binding signal in assay [4] was 1.15. As for AATAGA, the binding signal turned out to be 1.09 in assay [1] and 0.972 in assay [2].

Regarding GAAAGA, the binding signal was found to be 0.979 in assay [1] and 0.918 in assay [2]. With AAATGA, in assay [4], the binding signal turned out to be 1.29.

In the case of TGTCCA, the figures for the binding signal in assay [1] and in assay [2] were 1.18 and 1.14, respectively.

Turning to TGCGAT, the binding signal was 1.12 in assay [1] and 1.31 in assay [2].

For TAGCAC, the binding signal in assay [1] is 1.12; in assay [2], 1.19. Taken in the same sequence, the figures for TTAGGG were 1.14 and 1.07. Take ATATGG: the binding signal in assay [1] was found to be 1.31; in assay [2], 1.25.

As to TGGTAT, the results for the binding signal in assay [1] and in assay [2] were 1.45 and 1.24, respectively. For CTACTC, in that order: 1.36 and 1.46.

As for CGCGAC, the binding signal in assay [1] was determined as 0.971; in assay [2], 0.984. For CGATAA, in that order: 1.02 and 1.2. For CGTTAC, in that order: 1.09 and 1.21. As for TCGTTC, the binding signal in assay [1] was 1.15; in assay [2] it was 1.23.

Consider CACTTC, for which the binding signal in assay [1] came out at 3.77; in assay [2], 3.97.

As to TTCGTT, the results for the binding signal in assay [1] and in assay [2] were 1.4 and 1.24, respectively.

As for TTCTCG, the binding signal in assay [4] stood at 1.45. GATGCT: the binding signal in assay [2] is 1.2; in assay [4] it was 1.25; in assay [3] it was 1.29. AAATAT: the binding signal in assay [4] was determined as 1.37; in assay [3], 1.29.

On to TAATTT, for which the binding signal in assay [4] was found to be 1.41.

Regarding TTCAGT, the results for the binding signal in assay [4] and in assay [3] were 1 and 0.946, respectively.

On to CGTCCC, for which the binding signal amounted to 1.57 in assay [2], 1.38 in assay [4] and 1.41 in assay [3]. Turning to TCTTGC, the binding signal in assay [4] worked out at 1.35. In assay [4], AGAAAT came in with a binding signal of 1.21.

CAGAAT: the binding signal in assay [4] came out at 0.983; in assay [3] it was 0.928.

In the case of CCCACA, the binding signal in assay [4] was 1.13; in assay [3], 1.1. For TCGATT, in that order: 1.16 and 1.01. Regarding CGACGT, the binding signal was found to be 1.07 in assay [2], 1.05 in assay [4] and 1.09 in assay [3].

Sequence TTGACA displayed a binding signal in assay [4] of 1.4.

With TTTTAA, the binding signal was found to be 1.28 in assay [4] and 1.23 in assay [3].

Consider TAACCT, for which the binding signal is 1.43 in assay [2], 1.31 in assay [4] and 1.31 in assay [3]. Consider CGATTT, for which the figures for the binding signal in assay [2], in assay [4] and in assay [3] were 1.04, 1.26 and 1.18, respectively. As for TGCCTG, the binding signal was determined as 1.28 in assay [4] and 1.31 in assay [3].

ATCTAA: the binding signal stood at 1.2 in assay [4] and 1.24 in assay [3].

With GCTACC, the binding signal is 1.22 in assay [4] and 1.24 in assay [3]. Taken in the same sequence, the figures for ATCATA were 1.03 and 1.09. AAATGG had a binding signal in assay [4] of 1.54.

In turn, GCCAAT gave a binding signal in assay [4] of 1.06.
